Assay [1] deals with RSV nucleoprotein N, wild type (expressed in BSRT7/5 cells) (human respiratory syncytial virus) (UniProt P03418). Nature of the assay: co-sedimentation; soluble/insoluble fractionation of BSRT7/5 cells expressing P and/or N 24 h posttransfection; lysis in 50 mM Tris-HCl pH 7.4, 2 mM EDTA, 150 mM NaCl, 1% NP-40, sonicated, 13,000 rpm at 4°C for 30 min; total, soluble and pellet fractions by Western blotting. A general note: A western blot detects proteins with antibodies after separation by electrophoresis.

Protein sequences, listed by entry. Tags and fused reporters are not part of them. Lines headed by an entry give the natural chain unless they say otherwise; changes in a name come on top. Chains listed by the source or under a name are the forms on record and can include a tag or linker. Residues count along the entry.
UniProt P03418: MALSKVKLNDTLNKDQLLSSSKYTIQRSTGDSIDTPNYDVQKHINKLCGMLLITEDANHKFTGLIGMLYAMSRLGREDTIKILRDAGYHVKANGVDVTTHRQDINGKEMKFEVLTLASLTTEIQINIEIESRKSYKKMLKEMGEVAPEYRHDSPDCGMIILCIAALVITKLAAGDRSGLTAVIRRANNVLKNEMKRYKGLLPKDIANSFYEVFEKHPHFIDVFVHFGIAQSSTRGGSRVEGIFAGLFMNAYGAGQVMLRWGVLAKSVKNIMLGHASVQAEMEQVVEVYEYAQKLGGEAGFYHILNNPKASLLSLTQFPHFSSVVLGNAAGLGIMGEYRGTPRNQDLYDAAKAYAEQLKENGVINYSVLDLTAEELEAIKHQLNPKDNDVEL
UniProt P12579: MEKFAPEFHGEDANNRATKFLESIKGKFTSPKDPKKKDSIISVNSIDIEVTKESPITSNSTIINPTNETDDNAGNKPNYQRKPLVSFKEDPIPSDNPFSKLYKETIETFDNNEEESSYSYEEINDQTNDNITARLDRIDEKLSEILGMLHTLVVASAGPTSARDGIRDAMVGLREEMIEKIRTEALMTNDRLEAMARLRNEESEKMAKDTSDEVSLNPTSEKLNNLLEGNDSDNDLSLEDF
GST-P[161-241] (RSV phosphoprotein residues 161 to 241 fused to GST): residues 161-241 of P12579

Assay [2] addresses GST-P[161-241] (RSV phosphoprotein residues 161 to 241 fused to GST) (human respiratory syncytial virus) (UniProt P12579). Nature of the assay: pull-down; N or mCherry-N coexpressed with GST-P[161-241] in E. coli BL21 (DE3); GST purification on beads, P-N complexes on beads cut with thrombin 16 h at 20°C, then Superdex 200 in 20 mM Tris-HCl pH 8.5, 150 mM NaCl (preparative purification of N).

Results are given in words; binding and its absence hold for the method and conditions named. In cells and extracts the contact can be indirect. Some entries that bind do so weakly or less than the wild type.

Regarding “RSV phosphoprotein P (full-length, expressed in BSRT7/5 cells) (from UniProt P12579 1-241)”, the binding entry in assay [1] is “binds”.
For the substance “recombinant RSV nucleoprotein N (pET-N, E. coli) (from UniProt P03418 1-391)”, the binding entry in assay [2] is on record as “binds”.
On the same count and under the same terms, the value for “recombinant mCherry-N (mCherry fused to the N terminus of RSV nucleoprotein N) (from UniProt P03418 1-391)” was “binds”.
